Measurements from PubChem BioAssay AID485314 (National Center for Advancing Translational Sciences (NCATS), 2010).
Screen size: about 340,000 compounds; about 4,500 (1.3%) were called active. This list was built around the results that the source calls inconclusive (neither active nor inactive); the mix of calls is not that of the screen. The call rests on the fitted dose curve; in most records, active means well fitted inhibition curve with a large enough effect; inconclusive means small, poorly fitted or top-dose-only effect, or another doubt; inactive means no such curve, though single readings can be large or run the other way. Potencies of inconclusive entries are doubtful fits and often do not repeat.

target: DNA polymerase beta (Homo sapiens) (UniProt P06746); assay: qHTS Assay for Inhibitors of DNA Polymerase Beta; conditions: Pol beta primer extension/strand displacement, fluorescence kinetic; activity change, negative = inhibition: at 114 µM (top of the series)
Method in brief: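 Kinetic readout of DNA synthesis with strand displacement by Pol beta. Compound and 10 nM enzyme sit 15 min at room temperature; 50 nM substrate starts the reaction, read immediately and at 10 min.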
On the % scale 0 is the no-effect control and ±100 the full control effect; potency means the concentration at half of the fitted maximal effect.

For `CN=C1SC(C(=O)O)CC(=O)N1C` (stereo not given), which Potency is on record?
The Potency was inconclusive: 89.1 µM [inhibitor, single point].

How did the Potency turn out when `CC1CCCCC1NC(=O)Cn1c(=O)oc2cc(S(=O)(=O)N3CCCC3)ccc21` (stereo not given) was run?
The Potency was inconclusive: 39.8 µM [inhibitor, full curve].

For `CCOCCc1nnc(NC(=O)Cc2ccc(Br)cc2)s1`, which Potency is on record?
Its Potency is active: 89.1 µM.

Which Potency does the source give for `Brc1ccccc1-c1nnc(COc2cccc3cccnc23)o1` here?
Its Potency is inconclusive: 31.6 µM [inhibitor, partial curve].

Which activity change, negative = inhibition does the source give for `CCN(c1ccccc1)P(=O)(Nc1ccccc1)Nc1ccccc1` here?
The activity change, negative = inhibition was inconclusive: -33.6% [inhibitor].

`O=C(CN1CCN(Cc2ccccc2)CC1)Nc1ccc(F)c(F)c1` was tested. Which Potency did it give?
The Potency was inconclusive: 79.4 µM [inhibitor, single point].

For `COc1ccc(-c2cc(C(=O)OC(C)C(=O)c3ccccc3)c3cccc(Cl)c3n2)cc1` (stereo not given), which Potency is on record?
The Potency was “inactive”.

How did the Potency turn out when `c1ccc(Nc2c(-c3c[nH]c4ccccc34)nc3ccccn23)cc1` was run?
The Potency was “inactive”.

Which Potency does the source give for `Cc1ccc(SCc2ccc(C(=O)NCc3ccncc3)cc2)cc1` here?
The Potency was inconclusive: 0.158 µM [inhibitor, partial curve, poor fit].

For `CCOC(=O)CCc1c(C)nc2cc(-c3ccccc3OC)[nH]n2c1=O`, which Potency is on record?
Its Potency is inconclusive: 79.4 µM [inhibitor, single point].

How did the Potency turn out when `O=C(Nc1sc2c(c1C(=O)NCc1ccco1)CCCC2)c1cc(=O)c2ccccc2o1` was run?
The Potency was inconclusive: 44.7 µM [inhibitor, partial curve].

Which Potency does the source give for `COC(=O)CSc1nc2c(c(-c3ccco3)c1C#N)CCCC2` here?
The Potency was active: 22.4 µM.

How did the Potency turn out when `Cc1cc(C(F)(F)F)nn1CC(=O)NCc1ccco1` was run?
The Potency was inconclusive: 0.708 µM [inhibitor, full curve, poor fit].

For `Cc1cc(=O)oc2cc(OCc3ccc(C(=O)OCC(=O)Nc4ccc(N(C)C)cc4)cc3)ccc12`, which Potency is on record?
The Potency was inconclusive: 20 µM [inhibitor, partial curve, poor fit].

`CCC(=O)N1CCc2cc(Br)cc(S(=O)(=O)CCC(=O)NCc3ccc(Cl)cc3)c21` was tested. Which Potency did it give?
Its Potency is inconclusive: 70.8 µM [inhibitor, partial curve].

For `COc1cccc(N=Cc2c(O)c3ccccc3oc2=O)c1`, which Potency is on record?
The Potency was inconclusive: 8.91 µM [inhibitor, partial curve, poor fit].

`Nc1ccc2nn(-c3cccc4ccccc34)nc2c1` was tested. Which Potency did it give?
Its Potency is “inactive”.

For `CC(C)(C)c1cc(CCC(=O)NCc2cccnc2)cc(C(C)(C)C)c1O`, which activity change, negative = inhibition is on record?
The activity change, negative = inhibition was inconclusive: -34.7% [inhibitor].

With `COc1ccc(NC(=S)NNC(=S)Nc2cccc(C(F)(F)F)c2)cc1` as the compound, how does the Potency read?
The Potency was “inactive”.

`CCc1nc2oc3cc(OC)ccc3c(=O)c2c(=O)n1Cc1ccco1` was tested. Which Potency did it give?
Its Potency is active: 25.1 µM.

Which Potency does the source give for `CC1=C(C(=O)Nc2ccccc2C(F)(F)F)C(c2sccc2C)NC(=S)N1` (stereo not given) here?
Its Potency is inconclusive: 2.51 µM [inhibitor, partial curve, poor fit].

With `CC(=O)OCC(OC(C)=O)C(OC(C)=O)C(OC(C)=O)C(=O)Nc1cccc(C)c1` (stereo not given) as the compound, how does the Potency read?
The Potency was inconclusive: 39.8 µM [inhibitor, full curve, poor fit].

`Cc1ccc2nc(/C(C#N)=C\c3ccc(N4CCCCC4)c([N+](=O)[O-])c3)[nH]c2c1` was tested. Which Potency did it give?
Its Potency is active: 25.1 µM.

How did the activity change, negative = inhibition turn out when `O=C(O)c1ccc(-n2cccc2/C=N\NC(=O)c2cc3cc(Br)ccc3o2)cc1` was run?
Its activity change, negative = inhibition is inconclusive: -86.7% [inhibitor].

For `Cn1c(C(=O)OCC(=O)NCc2ccco2)cc2sccc21`, which Potency is on record?
Its Potency is inconclusive: 25.1 µM [inhibitor, full curve, poor fit].

How did the Potency turn out when `COc1ccc(CCNC(=O)C2CC(=O)N(c3ccc(C)cc3)C2)cc1OC` (stereo not given) was run?
The Potency was “inactive”.

For `Cc1ccc(Cn2c(C(C)Nc3nc(-c4ccc(C)cc4)cs3)nc3cc(Cl)c(Cl)cc32)cc1` (stereo not given), which Potency is on record?
The Potency was active: 31.6 µM.

`O=C(CN1C(=O)CCSc2ccc(S(=O)(=O)N3CCCC3)cc21)Nc1cccc(Cl)c1` was tested. Which Potency did it give?
Its Potency is “inactive”.

`CCOc1ccc(NC(=O)Nc2c(C)n(C)n(-c3ccccc3)c2=O)cc1` was tested. Which Potency did it give?
Its Potency is “inactive”.

Which Potency does the source give for `O=C(N/N=C/c1coc2ccccc2c1=O)c1ccccc1` here?
Its Potency is “inactive”.

For `CCC(C)NC(=O)Cn1ncc2c(C)n(Cc3ccc(F)cc3)c(C)c2c1=O` (stereo not given), which Potency is on record?
Its Potency is “inactive”.

With `O=C(O)c1ccc(N/N=C/c2ccc(-c3cc(Cl)ccc3Cl)o2)cc1` as the compound, how does the activity change, negative = inhibition read?
Its activity change, negative = inhibition is inconclusive: -48.2% [inhibitor].

`COc1ccc2cc(S(=O)(=O)NCCCN3CCOCC3)ccc2c1` was tested. Which Potency did it give?
The Potency was inconclusive: 3.55 µM [inhibitor, full curve].

For `Cc1ccc(N(C)/N=C/c2ccc(Cl)cc2Cl)nn1`, which Potency is on record?
The Potency was inconclusive: 31.6 µM [inhibitor, single point].

With `Cc1oc(C)c2c(=O)ccc3c(c12)OC(N)=C(C#N)C3c1ccccc1` (stereo not given) as the compound, how does the Potency read?
The Potency was inconclusive: 25.1 µM [inhibitor, full curve, poor fit].

`Cc1ccccc1NC(=O)Nc1cc(S(N)(=O)=O)ccc1C` was tested. Which Potency did it give?
Its Potency is inconclusive: 89.1 µM [inhibitor, partial curve, poor fit].

With `CN1CCc2c(sc(/N=C/c3c[nH]c4ccccc34)c2C#N)C1` as the compound, how does the Potency read?
Its Potency is “inactive”.

For `Cc1ccc(-n2ccc(=O)c(C(=O)Nc3ccc(S(=O)(=O)Nc4onc(C)c4C)cc3)n2)cc1`, which Potency is on record?
The Potency was inconclusive: 100 µM [inhibitor, partial curve].

Which Potency does the source give for `CCCc1nc2c(sc3nc4c(cc32)COC(C)(C)C4)c(=O)n1Cc1ccco1` here?
Its Potency is inconclusive: 28.2 µM [inhibitor, single point].

Which Potency does the source give for `Cc1nc2sc(-c3ccccc3)cc2c(=O)n1N` here?
The Potency was “inactive”.

With `CC(C1CCN(Cc2nc(C3CC3)no2)CC1)N1CCOCC1` (stereo not given) as the compound, how does the Potency read?
Its Potency is inconclusive: 89.1 µM [inhibitor, single point].

For `Cc1cccc(C(=O)NC(=S)Nc2ccccc2C(=O)O)c1`, which Potency is on record?
The Potency was inconclusive: 89.1 µM [inhibitor, single point].

How did the Potency turn out when `Cc1cc(C(=O)COC(=O)CCc2nc3ccccc3c(=O)[nH]2)c(C)n1CC1CCCO1` (stereo not given) was run?
Its Potency is inconclusive: 25.1 µM [inhibitor, full curve].

How did the Potency turn out when `COc1cc(OC)c(OC)cc1CN1CCN(Cc2ccc(SC)cc2)CC1` was run?
Its Potency is inconclusive: 28.2 µM [inhibitor, full curve, poor fit].

Which Potency does the source give for `O=C(Nc1cccc(O)c1)c1ccc2c(c1)C(=O)N(Cc1ccco1)C2=O` here?
The Potency was inconclusive: 79.4 µM [inhibitor, single point].
